Results are given in words; binding and its absence hold for the method and conditions named. In cells and extracts the contact can be indirect. Some entries that bind do so weakly or less than the wild type.
Molecular target: T1, DCBLD2 (discoidin, CUB and LCCL domain containing 2) (human (endogenous in HCT116)) (UniProt Q96PD2)
T1 sequence: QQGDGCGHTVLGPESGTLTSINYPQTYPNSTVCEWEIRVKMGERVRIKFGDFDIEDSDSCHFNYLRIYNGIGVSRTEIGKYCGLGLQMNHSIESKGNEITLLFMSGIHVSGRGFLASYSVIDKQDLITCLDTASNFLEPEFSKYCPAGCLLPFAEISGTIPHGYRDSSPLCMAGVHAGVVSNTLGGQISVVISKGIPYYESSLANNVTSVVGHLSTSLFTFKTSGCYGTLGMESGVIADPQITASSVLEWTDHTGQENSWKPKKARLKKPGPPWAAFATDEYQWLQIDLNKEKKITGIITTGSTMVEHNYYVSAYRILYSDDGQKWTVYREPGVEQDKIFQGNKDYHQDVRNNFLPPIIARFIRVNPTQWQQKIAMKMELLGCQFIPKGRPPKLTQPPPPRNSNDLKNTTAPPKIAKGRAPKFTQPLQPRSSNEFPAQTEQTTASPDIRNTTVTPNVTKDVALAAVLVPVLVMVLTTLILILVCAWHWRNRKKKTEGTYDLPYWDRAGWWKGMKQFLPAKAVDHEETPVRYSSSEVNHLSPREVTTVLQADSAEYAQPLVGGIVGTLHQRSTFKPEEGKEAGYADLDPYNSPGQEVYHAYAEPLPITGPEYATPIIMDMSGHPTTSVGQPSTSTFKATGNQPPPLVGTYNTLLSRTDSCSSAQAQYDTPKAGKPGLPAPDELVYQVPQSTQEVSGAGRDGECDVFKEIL
Test: co-IP; HCT116 lysate (Hepes, KCl, MgCl2, EDTA, Triton-X100 lysis buffer); immunoprecipitated with DCBLD2 or ITGB1 antibodies (4 ug) on Protein A/G agarose beads overnight at 4°C, washed with PBS 3 times; immunoblotted with ITGB1 or DCBLD2 antibodies, respectively

Amino acid sequences for entries named in this document (tags omitted). A change or cut given only in a name is not applied to a line headed by its entry.
UniProt P05556: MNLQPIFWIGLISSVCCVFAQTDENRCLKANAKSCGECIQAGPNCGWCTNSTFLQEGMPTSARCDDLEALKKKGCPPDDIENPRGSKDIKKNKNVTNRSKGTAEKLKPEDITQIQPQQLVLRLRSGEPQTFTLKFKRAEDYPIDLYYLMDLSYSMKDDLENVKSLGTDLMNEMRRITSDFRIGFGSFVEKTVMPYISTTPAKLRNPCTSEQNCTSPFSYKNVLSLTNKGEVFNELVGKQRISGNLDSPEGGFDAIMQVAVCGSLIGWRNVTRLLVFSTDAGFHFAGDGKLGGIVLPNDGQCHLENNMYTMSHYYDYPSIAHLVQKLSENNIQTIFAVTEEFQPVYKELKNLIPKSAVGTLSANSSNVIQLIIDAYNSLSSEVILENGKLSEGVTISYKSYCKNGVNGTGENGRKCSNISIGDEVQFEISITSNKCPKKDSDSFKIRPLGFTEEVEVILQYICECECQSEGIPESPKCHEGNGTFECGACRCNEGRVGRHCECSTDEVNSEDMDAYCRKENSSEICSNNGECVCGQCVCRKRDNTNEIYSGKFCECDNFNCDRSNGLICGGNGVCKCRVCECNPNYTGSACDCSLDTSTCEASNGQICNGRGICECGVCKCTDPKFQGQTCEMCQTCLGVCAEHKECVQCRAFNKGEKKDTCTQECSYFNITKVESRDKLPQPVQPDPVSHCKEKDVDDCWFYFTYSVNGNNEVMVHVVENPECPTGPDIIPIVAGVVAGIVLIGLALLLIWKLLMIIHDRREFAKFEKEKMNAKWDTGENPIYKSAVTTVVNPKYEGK

Substance: ITGB1 (from UniProt P05556 21-798)
- binding: binds

Source: paper PMC8170045
